# Reference: article PMC9001682
# Chains of the proteins cited; added tags and fusions are not shown. Residues count along the entry.
# UniProt P29317, residues 24-976: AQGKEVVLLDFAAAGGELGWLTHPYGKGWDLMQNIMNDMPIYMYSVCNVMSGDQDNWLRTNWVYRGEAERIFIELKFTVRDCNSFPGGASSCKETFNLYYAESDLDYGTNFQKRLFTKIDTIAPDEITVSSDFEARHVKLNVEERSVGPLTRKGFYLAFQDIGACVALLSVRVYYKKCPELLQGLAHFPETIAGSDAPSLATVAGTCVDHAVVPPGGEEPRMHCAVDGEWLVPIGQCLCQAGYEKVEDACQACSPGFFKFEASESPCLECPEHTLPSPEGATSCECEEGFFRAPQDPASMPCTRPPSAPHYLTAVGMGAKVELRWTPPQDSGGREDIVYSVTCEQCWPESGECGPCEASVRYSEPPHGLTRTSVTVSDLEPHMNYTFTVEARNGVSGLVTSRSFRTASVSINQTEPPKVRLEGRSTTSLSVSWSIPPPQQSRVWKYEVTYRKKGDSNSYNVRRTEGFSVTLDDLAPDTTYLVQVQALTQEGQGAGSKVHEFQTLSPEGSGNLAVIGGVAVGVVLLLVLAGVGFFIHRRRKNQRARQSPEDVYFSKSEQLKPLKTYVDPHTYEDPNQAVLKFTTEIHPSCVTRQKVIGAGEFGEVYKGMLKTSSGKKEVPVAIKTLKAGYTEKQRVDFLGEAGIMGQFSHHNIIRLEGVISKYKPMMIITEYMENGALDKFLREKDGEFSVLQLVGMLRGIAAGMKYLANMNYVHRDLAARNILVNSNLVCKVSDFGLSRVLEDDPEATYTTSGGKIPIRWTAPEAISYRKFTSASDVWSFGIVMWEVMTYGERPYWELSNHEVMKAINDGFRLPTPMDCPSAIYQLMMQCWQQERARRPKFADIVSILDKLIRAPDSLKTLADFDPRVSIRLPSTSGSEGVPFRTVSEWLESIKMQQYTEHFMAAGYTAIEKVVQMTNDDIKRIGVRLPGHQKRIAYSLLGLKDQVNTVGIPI
# These are yes or no findings as the source states them, for the method shown. In cells and extracts the contact can be indirect. Some binding calls cover weakened binding; strength is not graded here. Where a sequence is shown, tags or fusion partners need not be part of it.
# T1: Flag-tagged MFSD4A, transfected in 293 T cells (UniProt Q8N468)
# T1 sequence: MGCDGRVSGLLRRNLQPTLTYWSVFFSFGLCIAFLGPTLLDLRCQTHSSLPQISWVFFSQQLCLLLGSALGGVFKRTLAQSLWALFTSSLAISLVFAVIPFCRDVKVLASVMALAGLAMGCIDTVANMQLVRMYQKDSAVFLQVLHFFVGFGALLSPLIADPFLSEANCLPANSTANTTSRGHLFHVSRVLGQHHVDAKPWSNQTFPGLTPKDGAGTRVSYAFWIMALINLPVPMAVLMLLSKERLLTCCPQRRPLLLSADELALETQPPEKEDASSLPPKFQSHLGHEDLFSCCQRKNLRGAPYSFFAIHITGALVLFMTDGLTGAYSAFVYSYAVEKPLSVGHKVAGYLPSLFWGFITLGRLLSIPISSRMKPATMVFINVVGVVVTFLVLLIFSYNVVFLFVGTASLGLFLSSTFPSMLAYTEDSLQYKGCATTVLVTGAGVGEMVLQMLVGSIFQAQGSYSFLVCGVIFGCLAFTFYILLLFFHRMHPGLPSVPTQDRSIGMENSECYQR
# T2: HA-tagged RNF149 (UniProt Q8NC42)
# T2 sequence: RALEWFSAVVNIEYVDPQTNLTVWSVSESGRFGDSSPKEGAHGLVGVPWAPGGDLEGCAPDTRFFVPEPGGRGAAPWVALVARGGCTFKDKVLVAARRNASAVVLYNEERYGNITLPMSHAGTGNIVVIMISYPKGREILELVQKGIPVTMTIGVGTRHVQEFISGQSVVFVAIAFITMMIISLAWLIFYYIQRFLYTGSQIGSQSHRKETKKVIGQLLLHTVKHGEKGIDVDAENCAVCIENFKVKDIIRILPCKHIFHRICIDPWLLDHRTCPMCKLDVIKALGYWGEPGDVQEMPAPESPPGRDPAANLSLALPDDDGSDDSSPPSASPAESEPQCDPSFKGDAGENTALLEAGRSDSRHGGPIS
# B1: Flag-tagged MFSD4A, transfected in 293 T cells (protein, UniProt Q8N468 1-514)
# chain: T1 sequence
# Assays:
# Assay in all cases: co-IP; 293 T cells transfected with FLAG-MFSD4A, GFP-EPHA2 and HA-RNF149 together; lysates with anti-Flag, anti-GFP or anti-HA antibodies or IgG overnight at 4 °C, protein A/G magnetic beads, immunoblot with anti-GFP, anti-FLAG and anti-HA
# [1] = molecular target: T1, Flag-tagged MFSD4A, transfected in 293 T cells
# HA-tagged RNF149 = molecular target: T2, HA-tagged RNF149
# GFP-tagged EPHA2 = GFP-tagged EPHA2 (UniProt P29317)
Molecule,binding [1],binding (HA-tagged RNF149),binding (GFP-tagged EPHA2)
GFP-tagged EPHA2 (from UniProt P29317 24-976) (receptor),binds,binds,–
B1,–,binds,binds
